This passage reports binding results from publication PMC12313994.

Amino acid sequences for entries named in this document (tags omitted).
UniProt Q8IXI2: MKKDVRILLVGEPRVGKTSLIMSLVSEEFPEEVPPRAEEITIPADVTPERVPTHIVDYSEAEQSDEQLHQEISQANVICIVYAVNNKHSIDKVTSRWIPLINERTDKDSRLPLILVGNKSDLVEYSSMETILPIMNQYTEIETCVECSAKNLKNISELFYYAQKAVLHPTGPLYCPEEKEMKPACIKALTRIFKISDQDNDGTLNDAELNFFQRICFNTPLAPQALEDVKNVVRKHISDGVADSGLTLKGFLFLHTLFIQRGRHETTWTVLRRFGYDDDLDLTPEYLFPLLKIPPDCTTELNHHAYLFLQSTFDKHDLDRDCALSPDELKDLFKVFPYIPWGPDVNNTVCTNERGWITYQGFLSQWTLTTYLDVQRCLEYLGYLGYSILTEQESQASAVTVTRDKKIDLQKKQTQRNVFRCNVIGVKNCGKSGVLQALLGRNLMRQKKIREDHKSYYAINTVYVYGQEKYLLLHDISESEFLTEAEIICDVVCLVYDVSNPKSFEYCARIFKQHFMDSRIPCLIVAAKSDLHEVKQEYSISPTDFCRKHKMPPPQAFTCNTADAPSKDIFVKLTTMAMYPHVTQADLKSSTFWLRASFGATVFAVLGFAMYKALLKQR

Assay [1] deals with T1, TRAK2 (human (endogenous in hCMEC/d3)) (UniProt O60296).
T1 sequence: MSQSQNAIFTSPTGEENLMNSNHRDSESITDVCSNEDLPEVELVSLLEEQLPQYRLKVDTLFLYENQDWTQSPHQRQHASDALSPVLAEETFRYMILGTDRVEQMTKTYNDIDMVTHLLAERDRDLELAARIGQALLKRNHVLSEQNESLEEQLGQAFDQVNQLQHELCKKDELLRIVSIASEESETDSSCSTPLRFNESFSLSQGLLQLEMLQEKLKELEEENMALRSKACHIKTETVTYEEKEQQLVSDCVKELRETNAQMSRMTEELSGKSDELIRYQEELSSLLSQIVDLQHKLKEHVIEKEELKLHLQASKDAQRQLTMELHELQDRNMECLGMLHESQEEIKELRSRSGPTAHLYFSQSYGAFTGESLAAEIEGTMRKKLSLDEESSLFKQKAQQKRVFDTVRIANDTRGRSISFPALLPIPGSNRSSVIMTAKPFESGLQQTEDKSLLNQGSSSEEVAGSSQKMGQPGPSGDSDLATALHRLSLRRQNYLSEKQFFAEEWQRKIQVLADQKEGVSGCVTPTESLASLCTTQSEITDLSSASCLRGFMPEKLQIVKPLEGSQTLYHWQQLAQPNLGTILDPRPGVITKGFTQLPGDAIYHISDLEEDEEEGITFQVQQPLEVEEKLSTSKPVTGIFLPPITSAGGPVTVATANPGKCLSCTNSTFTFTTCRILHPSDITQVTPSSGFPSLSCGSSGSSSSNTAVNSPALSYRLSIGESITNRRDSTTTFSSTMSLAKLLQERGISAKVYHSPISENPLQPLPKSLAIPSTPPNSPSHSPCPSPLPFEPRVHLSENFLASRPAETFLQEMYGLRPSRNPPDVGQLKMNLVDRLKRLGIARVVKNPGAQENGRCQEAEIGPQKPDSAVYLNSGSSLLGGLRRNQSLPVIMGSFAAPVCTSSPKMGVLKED
The experiment in a line: co-IP; anti-TRAK2 or control IgG added to lysates of Wt or ΔTRAK2 ECs (NP-40 lysis buffer: 20 mM Tris-HCl pH 8, 137 mM NaCl, 10% glycerol, 1% Nonidet P-40, 2 mM EDTA), 4 °C overnight, Protein A/G magnetic beads; western blot for TRAK2 and MIRO1.

The target of assay [2] is T1, TRAK2 (human (endogenous in hCMEC/d3)). The experiment in a line: proximity ligation; Duolink PLA with anti-TRAK2 and anti-MIRO1 in fixed, permeabilised Wt or ΔTRAK2 ECs on CDM; control without primary antibody; both proteins <40 nm apart.

No constants are given. Whether binding was seen depends on the method and setting. Binding seen in cells or lysates may run through a third protein. Some results given as binding are weak or reduced against the parent protein; the word gives no strength.

Turning to MIRO1 (from UniProt Q8IXI2 1-618), the binding entry in assay [1] and in assay [2] was “binds” each time.
